This is an account of results in PubChem BioAssay AID1347423 (Functional Genomics Laboratory (NCATS/FGL), 2020).

Screen size: about 52,000 sequences; about 210 (0.4%) were called active.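 How the source made its calls: active means gene whose silencing raises cell survival under the drug, median off-target-corrected z-score across its silencing RNAs 2 or more; inactive means the rest.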 This is one part of the list.

This assay is described as follows: Resistance to Poly (ADP-Ribose) Polymerase inhibitor: Gene Identification via Genome-wide siRNA Screen. To be noted: mouse BRCA2 R2336H ES cells, olaparib, CellTiter-Glo viability; active compounds read high. Put shortly: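 Mouse BRCA2 R2336H ES cells were reverse-transfected with siRNA (20 nM final), treated at 48 h with 500 nM olaparib, and read by CellTiter-Glo after 72 h. Scores: MAD-based z per siRNA, median per gene, seed off-target correction.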
Background: ATP-based viability assays read luminescence as a measure of living cells.
On to GAAUGUGCAGAUAGCUGGCTT against Sdsl, for which the z-score is inactive: -0.97.

For “AUUGCAUUCCUCCAGACUGTT against 2900036K24Rik”, the z-score is inactive: 0.417.

Regarding GGAAUAGCAUCACCAGUUGTT against Ches1, the z-score is inactive: -1.29.

For the sequence CCAGACCAGGGAGAAAUCATT against AY053573, the z-score is inactive: 2.19.

“GGAUCUGUGACUUUAACUUTT against D830013H12”: the z-score is inactive: 1.57.

Take ACUAUGUGCGAAACUCGCGTT against Tmhs: the z-score is inactive: 0.241.

As to GCAGAAUCACCUAAUUGUGTT against Adora2b, the z-score was inactive: 1.5.

As to GGUGAAAGGAGCAAAUGAUTT against Fyco1, the z-score is inactive: -0.096.

For the sequence CCGUAUCCGGCAUUGGAUUTT against Mrps16, the z-score was inactive: 0.345.

On to CCUAAAUACGAUUGGUGUGTT against Cdca4, for which the z-score is inactive: 0.082.

As for GGACGGUGACCUGUAUGAUTT against Cpxm1, the z-score is inactive: -0.405.

In the case of GGGACACUACAUGAAGGCCTT against Tnfrsf25, the z-score is inactive: 2.2.

For the sequence GGAGUAUUUUUUCACAGUUTT against Olfr338, the z-score is inactive: 0.765.

Consider GCCGGAGCACAACAAUUCUTT against Kcnn2, for which the z-score was inactive: -0.076.

On to GGCUGGAUUGUAGAAUUAATT against Vpreb1, for which the z-score was inactive: 0.416.

For the sequence CGGAUACAAUUUCUGACCGTT against Gm779, the z-score was inactive: 1.95.

For the sequence “GGAACUUAUAUCUGCGCCATT against C030038J10Rik”, the z-score was inactive: 0.592.

CCUACUACGAGAGGAAAACTT against Ak5: the z-score is inactive: -0.679.

Take “GCUCAUGUCAGGAGAGAGUTT against 9430098E02Rik”: the z-score is inactive: -1.18.

Consider GGAUAUUCUUCCAGUCUUUTT against MGC118154, for which the z-score is inactive: -1.48.

GGCGUGACUUGGAAACAUGTT against Itga8: the z-score was inactive: -0.019.

GGACAUUGAGUCAAAAAUCTT against Slc19a2: the z-score is inactive: 0.448.

GGAAAAGAUGAAAAGUGACTT against Myh11: the z-score was inactive: 0.385.

Consider GCCGUAUGGCAGGUAUUUUTT against AI118078, for which the z-score is inactive: 1.49.

In the case of “GCGACUGUUUAGCUUUUUCTT against 2900002H16Rik”, the z-score was inactive: 0.561.

In the case of AGGACUAGGGAUCCUAAUUTT against Ubl5, the z-score was inactive: 1.26.

As to GCCUGUUCUAGGUGACCUATT against Chd3, the z-score was inactive: -1.01.

With GGCGAUUAAACUAUACAUUTT against Rrm2, the z-score was inactive: -3.33.

For the sequence GGCUGCCUCGAAAUUACAATT against Lamb3, the z-score is inactive: -1.79.

Regarding CGUCUUUCCUCACUAGCAATT against Cdc42ep4, the z-score is inactive: -0.133.

Regarding CCCAAAGAUAGAGCUCUGUTT against Sec61a2, the z-score is inactive: -1.82.

Consider GCGGACUCUUUUCAUCAAUTT against BC026370, for which the z-score was inactive: 0.523.

Regarding GGAAUAAUAGAGGAAUGAGTT against Bclaf1, the z-score is inactive: -1.15.

For the sequence GGCCAAAAACAAGGAGACCTT against Stk10, the z-score is inactive: 1.36.

As to CGACAAGAGAGCACAGAGATT against Traf3ip1, the z-score is inactive: -2.74.

In the case of CCUUUCCUUUGUUGAUUUCTT against Olfr887, the z-score is inactive: 2.27.

As for “GGUGAAAAUAAUAGAGCGGTT against 4932425I24Rik”, the z-score was inactive: 0.404.

Turning to GGUGUUCCUAUAAAAGUAUTT against Tfb2m, the z-score was inactive: -1.86.

As for GUCUUUCUGUCUUGUCUUGTT against Fbxo21, the z-score is inactive: 0.0565.

Turning to AAGAGCAUUAGUGCACAGATT against LOC384639, the z-score was inactive: -1.22.

With “CCAGACCUGUGGUAAUCUATT against 2810009O15Rik”, the z-score was inactive: -0.383.

For the sequence CCUACAUAGCGACAUCCUUTT against Car12, the z-score is inactive: 0.905.

Regarding GGCAGGCAGAAAGCUUUGUTT against Olfr1054, the z-score is inactive: -0.0176.

With CGGUCUUUAUUACAUAAUCTT against Ptpro, the z-score was inactive: 0.452.

Take GGUACCGUCAGUUGUCCUATT against Rnf4: the z-score is inactive: -1.52.

With CUCAGAUAUUCUUUUCCCATT against Olfr142, the z-score was inactive: 1.13.

For the sequence GGAGGGAAAGAUCAUUACATT against Kirrel2, the z-score was inactive: -0.84.

Take “GGACAGUUUGGUACCAGUGTT against 2810038K19Rik”: the z-score was inactive: -1.99.

Turning to GGUGCUGGUGGAUGAACUATT against Nags, the z-score was inactive: 0.523.

In the case of GGAGAUGAUUGACCGGCUATT against Epc1, the z-score was inactive: -1.24.

GGAUUGAGUCACUUAUAGATT against Cul4a: the z-score was inactive: 0.108.

GGUUUCUUAUCAAACUCCATT against Farp2: the z-score is inactive: -0.0396.

Consider GGUGACAAUGACCUUAUAGTT against Adsl, for which the z-score is inactive: -1.4.

Turning to GGAACAAAAGAAGAAUACCTT against Pkhd1, the z-score is inactive: -0.498.

On to GGUCCAUACUCCUAAAGAATT against Mpzl1, for which the z-score is inactive: -0.617.

Regarding GGUUCUAAUAAAAAUCGGUTT against Pcdhb1, the z-score is inactive: 0.852.

As to GGAUUUCCUGUUCUUUCUATT against Skb1, the z-score is inactive: -0.419.

Consider GGAUGUGGUCUGAAUUACCTT against Prkcm, for which the z-score is inactive: 0.779.

Take “GGCAAACUCGGGUAUACACTT against 8030451F13Rik”: the z-score was inactive: 1.56.

Consider CGUGUGCAAAGAAGCUAAATT against Mdm2, for which the z-score was inactive: -1.49.

Take UUUACUCUCAUGGUAACCUTT against Olfr798: the z-score was inactive: -0.421.

On to GGUAGUCACUAUCUUAAUCTT against Olfr1101, for which the z-score was inactive: 0.0457.

GGAACAGAAACAAGGUUUUTT against AA407930: the z-score was inactive: -0.112.

Regarding CGAGAAUAUUCGCCCAACCTT against Erbb3, the z-score was inactive: -0.303.

As for CGCCGUAUUUAGACUAAAATT against Capn11, the z-score is inactive: -0.14.

On to GCUAAUCACCAAAGCUGAGTT against D3Wsu161e, for which the z-score is inactive: -0.792.

Turning to GGAGAAUCAUGUGAGCCUGTT against Tph1, the z-score was inactive: -2.12.

For CCUGAUAUUCAUGACCAAATT against Wasf2, the z-score was inactive: -0.129.

Regarding GCUCAUAAUUUUGACAGCUTT against Cyp51, the z-score was inactive: -0.0314.

For the sequence GGUUGUGUAAAAUAGUACUTT against Hp1bp3, the z-score is inactive: 0.35.

With CCAUGAAAGAGGUAAUGCATT against Mdm4, the z-score is inactive: -0.694.

In the case of CCGAACAAAGAACUGUUCATT against AI132487, the z-score is inactive: -0.624.

In the case of GGGUUUUAUUGGAAAAGGATT against Riok3, the z-score was inactive: 0.523.

Regarding CCAGAACUCACUGUUGAUUTT against Gabre, the z-score is inactive: 1.08.

For the sequence GGAAAGAGCUUUUUAUUGUTT against Zfp235, the z-score was inactive: 0.999.

In the case of GCUGCACUGACAUAGGAGUTT against LOC547431, the z-score is inactive: -0.112.

As to CGUGUAUCGUUGUCUGAAUTT against Donson, the z-score was inactive: -0.353.

For GGAAGUUUCUGAAUGCUGUTT against Klrd1, the z-score was active: 2.01.

For the sequence GCGCGCACGAUGCUUCAUUTT against Tm7sf4, the z-score is inactive: -1.57.

Take GGACAUUGUAGGAGCCCAUTT against Kynu: the z-score is inactive: -2.32.

Consider GCGUGGAGAACCGUUAAUCTT against Shrm, for which the z-score is inactive: 0.183.

On to “AACCUCAAAUGUUCAGUCCTT against 2310002A05Rik”, for which the z-score is inactive: -0.713.

On to GCUGUCACAGUUUGUGAUUTT against Gak, for which the z-score was inactive: 0.753.

GCAUUAAGCAAUGGCAUCATT against Cbfa2t2h: the z-score was inactive: -0.0376.

For the sequence GCACCCUGAUGACUGAGUUTT against Olfr204, the z-score was inactive: -0.409.

As for GGUCUUGAAUGUCAAGGCUTT against Mylk, the z-score was inactive: 0.599.

Take “GCACCGUUCAAGAAAUCGATT against 2610034N03Rik”: the z-score was inactive: -0.0263.

In the case of GCAAGGUUAUCGCAUUUGGTT against Olfr1511, the z-score was inactive: -0.801.

Turning to CCAAUGCAAUGUUAGCUUUTT against Tas1r3, the z-score was inactive: 0.198.

Regarding GGGUAUCAGUGCCUUCCUGTT against Acads, the z-score was inactive: 0.08.

For “GGAGUCCACAUGGAAAUCATT against 4930486G11Rik”, the z-score is inactive: 0.267.

On to “CCGUAGACCCGGUUUAUGATT against C130099A20Rik”, for which the z-score is inactive: -0.943.

For the sequence GGAAAAGUCCAAGUUUGAATT against Hmgb2, the z-score is inactive: 0.178.

Consider “GGACUCCAAACCUAAGUGATT against 4930517K11Rik”, for which the z-score was inactive: 1.45.

As to GCUAGGAUUGUUCACAAACTT against Spdef, the z-score is inactive: 0.191.

Regarding ACUAUGGUUGGUUCAAACGTT against Acat2, the z-score is inactive: -2.46.

Consider GGAUCUGAUAACGUGGACATT against H2-Q2, for which the z-score is inactive: 1.43.

On to “CGUACCAAAUGCUAACAUUTT against 4632419K20Rik”, for which the z-score was inactive: 1.16.

Consider GGGCCAAGGAACCUAUUUGTT against Ltbr, for which the z-score was inactive: -2.14.

Turning to “GGCAAUGUGCUGAUCCACUTT against 1810073N04Rik”, the z-score is inactive: -0.839.

Turning to GGAAGCCAAAAAGUUUUUATT against Cyp3a44, the z-score was inactive: 0.622.

Regarding CGAGAACCCACUUUUAAAGTT against Olfr701, the z-score was inactive: 0.837.

Take GGUCAUUGGUAAUUUUACATT against Rsn: the z-score was inactive: 0.621.

For the sequence CCAAAUCCGGGAAAAAGAGTT against MGC38735, the z-score is inactive: -1.58.
